Article PMC7819943, “Rice protein-binding microarrays: a tool to detect cis-acting elements near promoter regions in rice”
Some of the results follow.

target: T1, OsSMF1 (Oryza sativa, UniProt Q6ZLB0 1-436); test: protein-binding microarray (RPBM); PBS, 2% BSA, 51.3 ng/ul salmon testes DNA, 50 uM zinc acetate, 200 nM TF, 25 C, 1 h; high values mean tight binding; settings: protein: recombinant; tags: N-terminal polyhistidine and DsRed monomer fusion (pET32a); chain copies: 2; label: CyDye5-dUTP incorporated in the synthesized complementary strand; 3' TTTTT single-stranded linker to array surface; dsDNA, one strand shown
T1 sequence: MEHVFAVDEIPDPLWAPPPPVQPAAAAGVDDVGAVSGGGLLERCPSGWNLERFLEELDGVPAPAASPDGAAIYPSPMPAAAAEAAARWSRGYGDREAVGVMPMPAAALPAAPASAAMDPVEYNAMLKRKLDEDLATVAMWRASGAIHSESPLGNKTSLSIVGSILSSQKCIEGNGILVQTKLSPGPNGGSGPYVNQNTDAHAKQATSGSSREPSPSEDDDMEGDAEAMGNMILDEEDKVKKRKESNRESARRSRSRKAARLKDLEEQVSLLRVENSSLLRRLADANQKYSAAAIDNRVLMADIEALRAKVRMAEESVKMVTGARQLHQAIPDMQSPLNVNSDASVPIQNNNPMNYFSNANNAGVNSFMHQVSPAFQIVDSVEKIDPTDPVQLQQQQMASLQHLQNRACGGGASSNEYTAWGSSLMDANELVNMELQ
Summary of the method: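 The binding signal for each feature is its fluorescence intensity in arbitrary units. An Axon 4000B scanner was used to read a custom Agilent array that had been made double-stranded with Cy5-dUTP primer extension, blocked with 2% BSA, incubated at 25 °C for 1 h with 200 nM protein in PBS, 2% BSA, salmon testes DNA and 50 µM zinc acetate, and washed. The protein was an N-terminal polyhistidine–DsRed transcription factor fusion from E. coli BL21-CodonPlus, purified on Ni–NTA.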

Point of comparison: “ACCTCCACCTCCGCGTCGCCCACCACCACCACGGCCGGCACGGAGTCACCTAGTGCAG”, binding signal 3780 fluorescence intensity (a.u.). Against it:
- GGCCCCTTGATAGGTAATAGCCCTAATCCAGTTGATATGGCGGAGTCACCTAGTGCAG — lower, 3210 fluorescence intensity (a.u.)
- CGTACCGGCCACGGGCGCGCGTCACGTGGAGCCGCATCCACGGAGTCACCTAGTGCAG — higher, 4970 fluorescence intensity (a.u.)
- TCTCTTCCCTCTCCGTTTGTCGTGTCGAAGCCTTTGCCCCCGGAGTCACCTAGTGCAG — higher, 3870 fluorescence intensity (a.u.)
- ATCAAATAATCTGCCGCGTGTCAGCAGAGACTCGAGACGCCGGAGTCACCTAGTGCAG — higher, 4980 fluorescence intensity (a.u.)
- CCATTCCCACCACCTCAGCCGAGCCCCTCCCCTCTCGACCCGGAGTCACCTAGTGCAG — higher, 4110 fluorescence intensity (a.u.)
- CCTCTCCATTGCCTTCACCTCACTCGCCGCCGGTGATCAGCGGAGTCACCTAGTGCAG — lower, 3270 fluorescence intensity (a.u.)
- ACACGCACACTTCAGCTCTCGTCGTCATACATCTGCTAGTCGGAGTCACCTAGTGCAG — higher, 4430 fluorescence intensity (a.u.)
- TTGGTACTAGCTGTTAACTCCTTCCGTTATACGGAGTACTCGGAGTCACCTAGTGCAG — lower, 3220 fluorescence intensity (a.u.)
- GGATCGCATGGTGATGACGACGTCGTGACATGGACGCAGGCGGAGTCACCTAGTGCAG — higher, 7020 fluorescence intensity (a.u.)
- GAAGCCAAGCCAAGCACACGAGCGCAGCAGCAGCAGCAGCCGGAGTCACCTAGTGCAG — higher, 25400 fluorescence intensity (a.u.)
- TTCTTTGACAAGCCTCGCATTGACGCATTCTGAAAGCCTGCGGAGTCACCTAGTGCAG — higher, 4260 fluorescence intensity (a.u.)
- CTCGTCCTCCGCTCCGGCGTCATCTCCCGGCACCGCTCCGCGGAGTCACCTAGTGCAG — lower, 3170 fluorescence intensity (a.u.)
- AGATTGGTGAGGATACATGTACGTGTACGCGTACGTGGCACGGAGTCACCTAGTGCAG — higher, 11100 fluorescence intensity (a.u.)
- TTAAAGCAACGAAACCCCACTATAATACTCCCCATCTCCCCGGAGTCACCTAGTGCAG — higher, 21800 fluorescence intensity (a.u.)
- ACCGGCGGTGCCACTCCAATCGTCGCCACGTAGCCGTCGACGGAGTCACCTAGTGCAG — higher, 6560 fluorescence intensity (a.u.)
- TCGCCGAAGCCCGTCACCATCGCGTCACCATCGCGTCCGACGGAGTCACCTAGTGCAG — higher, 11700 fluorescence intensity (a.u.)
- CACGCTTCGGAGAATTTCCGACAATACACATACTCCTACTCGGAGTCACCTAGTGCAG — lower, 3260 fluorescence intensity (a.u.)
- GACTTCACTCACACGCGCACTCATATCCACGTACGATCTCCGGAGTCACCTAGTGCAG — higher, 6500 fluorescence intensity (a.u.)
- GATCGGAATGGGCTGGGCCTGAGAAGACTACTACATGGGCCGGAGTCACCTAGTGCAG — higher, 26800 fluorescence intensity (a.u.)
- CGCGCGGCTCTCACGGGCGCCCTCGTACGTGTTGGTGTTGCGGAGTCACCTAGTGCAG — higher, 4000 fluorescence intensity (a.u.)
- CCCTTTGTTACCACCAACTCATCAGCACCATATGTGGTAACGGAGTCACCTAGTGCAG — lower, 3340 fluorescence intensity (a.u.)
- TGACCTAGTCCACGTGGAAACCGTAGCCGACTCGTCCTCGCGGAGTCACCTAGTGCAG — higher, 12800 fluorescence intensity (a.u.)
- CTAATATATTGACGTGCAATCCTTCTGCGCGTTCGAGAAACGGAGTCACCTAGTGCAG — higher, 3960 fluorescence intensity (a.u.)
- CACTCCACTGCAACCGTGCAACGCTGACACTCACTTTTAACGGAGTCACCTAGTGCAG — higher, 4230 fluorescence intensity (a.u.)
- ATATTCTATTTAGCCATCTAACAACATTATGGAACTAGTCCGGAGTCACCTAGTGCAG — higher, 4260 fluorescence intensity (a.u.)
- CGACGAGGGTGGGGCCGCCGCGCTCACCTCCAACGAGGACCGGAGTCACCTAGTGCAG — higher, 4130 fluorescence intensity (a.u.)
- ACCGGCTCTTGTACCGGCCCATGACGTCGACGCCGGTGACCGGAGTCACCTAGTGCAG — higher, 6370 fluorescence intensity (a.u.)
- TCCGAAAACAAAAGTCTATTTAGAAAACCGATCCGTCATTCGGAGTCACCTAGTGCAG — higher, 26000 fluorescence intensity (a.u.)
- GATACATCAAGAGTCATGACACAAACTAAATGTGTAGTATCGGAGTCACCTAGTGCAG — lower, 3680 fluorescence intensity (a.u.)
- CTACTTCCAAATTCAGCTCCAGCTCACCACGCTGGAGAAACGGAGTCACCTAGTGCAG — higher, 4180 fluorescence intensity (a.u.)
- GACGCCGTCTCCTACCAGGTCAGCCAAGCCACTATTCCCTCGGAGTCACCTAGTGCAG — lower, 3330 fluorescence intensity (a.u.)
- CGGCGGCGCGGTCTCCCTCGTGACGTAGCTCGGCGGCGCGCGGAGTCACCTAGTGCAG — higher, 8300 fluorescence intensity (a.u.)
- TGCTCAGGGAGGTGGAGGGGCGCGGCGGAGCGAGCCGAGGCGGAGTCACCTAGTGCAG — higher, 3950 fluorescence intensity (a.u.)
- ACTATTTGCCACCTTTGCCTACGTGGCGAACCAACGTGGCCGGAGTCACCTAGTGCAG — higher, 28100 fluorescence intensity (a.u.)
- AGTACTCCAACTCATACTACTACTAATCTCTCTCTCTTTCCGGAGTCACCTAGTGCAG — higher, 3950 fluorescence intensity (a.u.)
- ACAAGGGTAGTCAGCATCCATTGTGACGTGGTCCATTGACCGGAGTCACCTAGTGCAG — higher, 14100 fluorescence intensity (a.u.)
- TTGCCAGTTGCCATTGCAATTACATGTACTCCACCTACAACGGAGTCACCTAGTGCAG — lower, 3560 fluorescence intensity (a.u.)
- GAACTAGTGATCGCCCCTCCGGCTGACGCCGACGGTAGCGCGGAGTCACCTAGTGCAG — higher, 5120 fluorescence intensity (a.u.)
- CATCCCTAGTCGGCGTCTTGTCATCGCCGCCCCAATCTCGCGGAGTCACCTAGTGCAG — higher, 4430 fluorescence intensity (a.u.)
- CCAAACTGTAACGCGTCAGCCTATACCTATCGACTTGCTGCGGAGTCACCTAGTGCAG — lower, 3730 fluorescence intensity (a.u.)
- GGTTTAGAACGAGACGCATGACGATATCAATCACCCACCCCGGAGTCACCTAGTGCAG — lower, 3340 fluorescence intensity (a.u.)
